# The other results are listed elsewhere or left out.
# Legend:
# Assay in all cases: glycan array binding signal (z-score within array); higher = stronger binding
# Conditions in all cases: glycan notation: IUPAC condensed, linker removed
# [1] = biological target: Neu5Ac(a2-8)Neu5Ac
# Summary of the method: (§1)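 Columns mapping to the same glycan were averaged after glycan names were converted to IUPAC-condensed notation. The data come from 3228 arrays in the Consortium for Functional Glycomics database, limited to those with an available protein sequence. Binding is reported as a within-array Z-score averaged across arrays of one protein sequence and across linkers.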
# [2] = biological target: Neu5Ac(a2-8)Neu5Ac(a2-3)Gal(b1-3)GalNAc(b1-4)[Neu5Ac(a2-3)]Gal(b1-4)Glc
# Summary of the method: as §1
# [3] = biological target: Neu5Ac(a2-8)Neu5Ac(a2-3)Gal(b1-3)GalNAc(b1-4)[Neu5Ac(a2-8)Neu5Ac(a2-3)]Gal(b1-4)Glc
# Summary of the method: as §1
# [4] = biological target: Neu5Ac(a2-8)Neu5Ac(a2-3)Gal(b1-4)Glc
# Summary of the method: as §1
# [5] = biological target: Neu5Ac(a2-8)Neu5Ac(a2-3)Gal(b1-4)GlcNAc
# Summary of the method: as §1
# [6] = biological target: Neu5Ac(a2-8)Neu5Ac(a2-3)[Gal(b1-3)GalNAc(b1-4)]Gal(b1-4)Glc
# Summary of the method: as §1
# [7] = biological target: Neu5Ac(a2-8)Neu5Ac(a2-3)[GalNAc(b1-4)]Gal(b1-4)Glc
# Summary of the method: as §1
# [8] = biological target: Neu5Ac(a2-8)Neu5Ac(a2-8)Neu5Ac
# Summary of the method: as §1
# [9] = biological target: Neu5Ac(a2-8)Neu5Ac(a2-8)Neu5Ac(a2-3)Gal(b1-4)Glc
# Summary of the method: as §1
# [10] = biological target: Neu5Ac(a2-8)Neu5Ac(a2-8)Neu5Ac(a2-3)[Gal(b1-3)GalNAc(b1-4)]Gal(b1-4)Glc
# Summary of the method: as §1
# [11] = biological target: Neu5Ac(a2-8)Neu5Ac(a2-8)Neu5Ac(a2-3)[GalNAc(b1-4)]Gal(b1-4)Glc
# Summary of the method: as §1
# [12] = biological target: Neu5Ac(a2-8)Neu5Ac(a2-8)Neu5Ac(a2-8)Neu5Ac(a2-3)[GalNAc(b1-4)]Gal(b1-4)Glc
# Summary of the method: as §1
# [13] = biological target: Neu5Ac(a2-8)Neu5Gc(a2-3)Gal(b1-4)GlcNAc
# Summary of the method: as §1
# [14] = biological target: Neu5Ac(b2-6)Gal(b1-4)GlcNAc
# Summary of the method: as §1
# [15] = biological target: Neu5Ac(b2-6)GalNAc
# Summary of the method: as §1
# [16] = biological target: Neu5Ac9Ac(a2-3)Gal(b1-3)GlcNAc
# Summary of the method: as §1
# [17] = biological target: Neu5Ac9Ac(a2-3)Gal(b1-4)GlcNAc
# Summary of the method: as §1
# [18] = biological target: Neu5Ac9Ac(a2-6)Gal(b1-4)GlcNAc
# Summary of the method: as §1
# [19] = biological target: Neu5Gc(a2-3)Gal(b1-3)GlcNAc
# Summary of the method: as §1
# [20] = biological target: Neu5Gc(a2-3)Gal(b1-3)[Fuc(a1-4)]GlcNAc
# Summary of the method: as §1
# [21] = biological target: Neu5Gc(a2-3)Gal(b1-4)Glc
# Summary of the method: as §1
# [22] = biological target: Neu5Gc(a2-3)Gal(b1-4)GlcNAc
# Summary of the method: as §1
# [23] = biological target: Neu5Gc(a2-3)Gal(b1-4)GlcNAc(b1-3)Gal(b1-4)GlcNAc(b1-2)Man(a1-3)[Neu5Gc(a2-3)Gal(b1-4)GlcNAc(b1-3)Gal(b1-4)GlcNAc(b1-2)Man(a1-6)]Man(b1-4)GlcNAc(b1-4)GlcNAc
# Summary of the method: as §1
# [24] = biological target: Neu5Gc(a2-3)Gal(b1-4)[Fuc(a1-3)]GlcNAc
# Summary of the method: as §1
# [25] = biological target: Neu5Gc(a2-6)Gal(b1-4)GlcNAc
# Summary of the method: as §1
# [26] = biological target: Neu5Gc(a2-6)GalNAc
# Summary of the method: as §1
# [27] = biological target: Neu5Gc(a2-8)Neu5Ac(a2-3)Gal(b1-4)GlcNAc
# Summary of the method: as §1
# [28] = biological target: Neu5Gc(a2-8)Neu5Gc(a2-3)Gal(b1-4)GlcNAc
# Summary of the method: as §1
# [29] = biological target: Neu5Gc(a2-8)Neu5Gc(a2-3)Gal(b1-4)GlcNAc(b1-3)Gal(b1-4)GlcNAc
# Summary of the method: as §1
# [30] = biological target: Neu5Gc(a2-8)Neu5Gc(a2-6)Gal(b1-4)GlcNAc
# Summary of the method: as §1
# [31] = biological target: Neu5Gc(b2-6)Gal(b1-4)GlcNAc
# Summary of the method: as §1
binder,measurement,setting,value
PX14404-bvu-534-26-534 (Bacteroides vulgatus) (protein) EDPRGKLTPENFFSTQDELNMSIYALYQKVNLSQVYTNMQLPQWQGDDITTNPGSNKQPAAEMDKFAAANNNKGVKDAWNMHYAIVKAANLIIQGASKTPTTQDEINIALGQAKFWRAYAYFTLVRLWGPLPMNLDNVNDDYTKPLSPVEEVYGHIVQDLTEAEAVLPTGYSGSPRFLNGVNVYVTRQAAKSTLAAVYMAMAGWPMNKTEYYAKAAEKAKEVIEGVNRGEYEYKLDKDYKDVYAMSNNYNNETVLGINYSPFVDWAQDSELTSCNQFESLGGWGDAWGEIRFWKEFPDGPRKDATYDPKIRLKDGTLVDWWELKEDGTPVVPEHHPMFSIFSVNWDPASKVNTSAPYDYTKPASQNMCNDHRHRIIRYSEVLLWYAEAKARTGQTDELAFKCLNDVRERAGLEPLTGLSADDLAEAAYKEHGWEVAGYWVALVTRRADQFRMNRLKDTFKERAENTAVEVADGILVKESVEYTNRTWSDNLMYLPYPDMDSQKNPNLVR,glycan array binding signal (z-score),[1],0.425
same,glycan array binding signal (z-score),[2],0.834
same,glycan array binding signal (z-score),[3],0.607
same,glycan array binding signal (z-score),[4],-0.559
same,glycan array binding signal (z-score),[5],-0.119
same,glycan array binding signal (z-score),[6],-0.754
same,glycan array binding signal (z-score),[7],-0.271
same,glycan array binding signal (z-score),[8],0.419
same,glycan array binding signal (z-score),[9],1.02
same,glycan array binding signal (z-score),[10],-0.014
same,glycan array binding signal (z-score),[11],0.28
same,glycan array binding signal (z-score),[12],0.074
same,glycan array binding signal (z-score),[13],12.9
same,glycan array binding signal (z-score),[14],-0.796
same,glycan array binding signal (z-score),[15],-0.232
same,glycan array binding signal (z-score),[16],-0.552
same,glycan array binding signal (z-score),[17],-0.197
same,glycan array binding signal (z-score),[18],0.363
same,glycan array binding signal (z-score),[19],-0.601
same,glycan array binding signal (z-score),[20],-1.1
same,glycan array binding signal (z-score),[21],0.615
same,glycan array binding signal (z-score),[22],-0.013
same,glycan array binding signal (z-score),[23],-0.423
same,glycan array binding signal (z-score),[24],-0.707
same,glycan array binding signal (z-score),[25],-0.607
same,glycan array binding signal (z-score),[26],1.92
same,glycan array binding signal (z-score),[27],-1.55
same,glycan array binding signal (z-score),[28],-0.893
same,glycan array binding signal (z-score),[29],-0.559
same,glycan array binding signal (z-score),[30],-0.649
same,glycan array binding signal (z-score),[31],-1.04

# An excerpt of these results, with bars between the fields.
binder | measurement | setting | value
PX14404-bvu-534-26-534 (Bacteroides vulgatus) (protein) EDPRGKLTPENFFSTQDELNMSIYALYQKVNLSQVYTNMQLPQWQGDDITTNPGSNKQPAAEMDKFAAANNNKGVKDAWNMHYAIVKAANLIIQGASKTPTTQDEINIALGQAKFWRAYAYFTLVRLWGPLPMNLDNVNDDYTKPLSPVEEVYGHIVQDLTEAEAVLPTGYSGSPRFLNGVNVYVTRQAAKSTLAAVYMAMAGWPMNKTEYYAKAAEKAKEVIEGVNRGEYEYKLDKDYKDVYAMSNNYNNETVLGINYSPFVDWAQDSELTSCNQFESLGGWGDAWGEIRFWKEFPDGPRKDATYDPKIRLKDGTLVDWWELKEDGTPVVPEHHPMFSIFSVNWDPASKVNTSAPYDYTKPASQNMCNDHRHRIIRYSEVLLWYAEAKARTGQTDELAFKCLNDVRERAGLEPLTGLSADDLAEAAYKEHGWEVAGYWVALVTRRADQFRMNRLKDTFKERAENTAVEVADGILVKESVEYTNRTWSDNLMYLPYPDMDSQKNPNLVR | glycan array binding signal (z-score) | [5] | -0.119
same | glycan array binding signal (z-score) | [8] | 0.419
